Data source: PubChem BioAssay AID1671195 (Yale University, 2021)

- Assay: 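Knockdowns that increase or decrease uptake of fluorescent LDL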 (primary screen)
- Cells: human Huh7 hepatoma cells
- Reagent: siRNA pool against human genes, 18 nM
- Duration: about 2 to 2.5 days of knockdown, then 8 h LDL uptake
- Treatment: DiI-labelled LDL at 30 µg/ml for 8 h, in lipoprotein-deficient serum medium
- Measurement: 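Fluorescent LDL signal imaged in cells, scaled to the plate median, robust z-score for each replicate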
- Direction: robust z-score: higher = more LDL uptake after knockdown
- Call rule: 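Active when two or more replicates show a robust z-score above 2 or below -2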
Here is one part, drawn at random, of about 22,000 deposited reagents. Of all reagents, about 1,510 (6.9%) got an active call. 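Active includes knockdowns raising or lowering LDL uptake; positive z-scores mean more uptake, negative mean less.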 The numbers tell different reagents against one gene apart.

gene | reagent no. | robust z-score, replicate 1 | robust z-score, replicate 2 | robust z-score, replicate 3 | outcome
KAT6B | 1 | -1.16 | -0.769 | -1.75 | inactive
JAML | 1 | 2.4 | 1.76 | 1.03 | inactive
EFHC1 | 1 | -0.673 | -1.47 | -1.7 | inactive
SRSF4 | 1 | -1.34 | -1.48 | -1.24 | inactive
LOC441030 (retired record) | 1 | 1.03 | 0.995 | 1.37 | inactive
FOXE1 | 1 | 3.35 | 2.52 | 3.24 | active
LOC442037 (retired record) | 1 | 0.774 | 0.0967 | -2 | inactive
SLC9D1 | 1 | -0.563 | -1.54 | -0.839 | inactive
SRP14 | 1 | -2.14 | -1.85 | -1.99 | active
PPIL2 | 1 | 0.606 | -0.339 | 0.73 | inactive
NMUR1 | 1 | 0.647 | 0.953 | 1.53 | inactive
POTEM | 1 | 1.62 | 1.85 | 2.41 | inactive
PPBP | 1 | -1.62 | 0.501 | -1.63 | inactive
CELF2-AS1 | 1 | 2.21 | 3.4 | 2.79 | active
DAZAP2 | 1 | 0.283 | -0.24 | -0.478 | inactive
MICAL2 | 1 | 1.27 | 0.837 | 0.705 | inactive
MICAL2 | 2 | -0.839 | -0.289 | -0.733 | inactive
PGLYRP4 | 1 | -0.193 | -0.12 | -0.462 | inactive
CLCF1 | 1 | -0.063 | -1.77 | 0.537 | inactive
HDAC5 | 1 | 1.06 | 0.208 | -0.229 | inactive
CCDC80 | 1 | -0.628 | 0.794 | -0.542 | inactive
REPIN1 | 1 | 1.57 | 1.46 | 0.708 | inactive
MCAT | 1 | 0.377 | -0.154 | -0.316 | inactive
TBCB | 1 | 0.512 | -0.0672 | 0.0425 | inactive
SLC36A4 | 1 | 0.673 | 0.385 | -0.678 | inactive
GOLGA6L2 | 1 | 0.113 | -0.447 | 0.0109 | inactive
BLID | 1 | 1.98 | 2.44 | 2.08 | active
ESCO1 | 1 | 0.935 | -2.37 | 0.0123 | inactive
HS3ST5 | 1 | -0.967 | -1.21 | -1.64 | inactive
GRM8 | 1 | 0.804 | 2.49 | 1.71 | inactive
OR4F6 | 1 | -1.08 | -1.41 | -1.25 | inactive
ACKR1 | 1 | 0.228 | 0.591 | 0.494 | inactive
GNGT2 | 1 | -0.382 | 0.191 | 0.113 | inactive
KIF23 | 1 | -1.29 | -0.799 | -1.45 | inactive
LOC440438 (retired record) | 1 | 0.686 | 0.983 | 0.931 | inactive
GDF2 | 1 | 0.921 | 1.57 | 2.38 | inactive
SLC9A8 | 1 | 0.743 | 0.608 | 1.58 | inactive
PABPC5 | 1 | 1.28 | 0.534 | 0.669 | inactive
DEXI | 1 | -3.23 | -2.06 | -3.42 | active
RIMBP2 | 1 | -1.72 | -1.23 | -1.07 | inactive
ZMYM4 | 1 | 1.33 | 0.885 | 0.253 | inactive
LNX1 | 1 | 0.868 | 1.23 | 0.262 | inactive
TCERG1 | 1 | -1.33 | -1.29 | -1.62 | inactive
CFI | 1 | -0.628 | -0.907 | -0.838 | inactive
TMPRSS11F | 1 | 1.98 | 1.06 | 1.82 | inactive
LOC441860 (retired record) | 1 | -0.924 | -0.49 | -0.502 | inactive
MARCKSL1 | 1 | 0.282 | 0.0364 | 0.484 | inactive
LPO | 1 | -0.98 | -0.765 | -1.2 | inactive
MAPK14 | 1 | -0.12 | 0.501 | 0.382 | inactive
LOC253289 (retired record) | 1 | -0.273 | 0.247 | 0.246 | inactive
TCEA2 | 1 | -1.39 | -1.99 | -2.29 | active
MTHFR | 1 | -1.19 | -0.806 | -1.3 | inactive
FAM90A1 | 1 | -0.475 | 0.551 | -0.313 | inactive
CLEC4G | 1 | -1.1 | -1.08 | -1.4 | inactive
TMPRSS2 | 1 | 0.439 | 0.709 | -0.13 | inactive
LITAF | 1 | -0.0783 | -0.747 | -0.932 | inactive
MASP2 | 1 | -0.543 | -0.224 | -0.246 | inactive
NBPF2P | 1 | 0.603 | -0.244 | 0.899 | inactive
MT1CP | 1 | 0.261 | -0.219 | 0.262 | inactive
LINC02003 | 1 | -0.185 | -0.564 | -1.34 | inactive
RPS10P11 | 1 | 0.389 | 0.0668 | 0.201 | inactive
TRIM63 | 1 | -0.21 | 0.948 | 1.01 | inactive
MIAT | 1 | -0.621 | -0.681 | -0.564 | inactive
DNM1P5 | 1 | -0.529 | -3.32 | -0.638 | inactive
PKM | 1 | 0.134 | 0.0324 | -0.399 | inactive
LOC284120 (retired record) | 1 | 0.371 | 0.516 | 0.57 | inactive
ETNPPL | 1 | 3.91 | 3.47 | 3.86 | active
LOC390254 (retired record) | 1 | 1.09 | 0.59 | 0.729 | inactive
NKIRAS2 | 1 | 0.497 | 0.401 | 1.46 | inactive
TAF5 | 1 | 0.91 | 1.14 | -0.309 | inactive
LOC440976 (retired record) | 1 | -0.75 | -0.341 | -0.13 | inactive
CITED4 | 1 | -0.227 | -0.0463 | -0.273 | inactive
H2BC17 | 1 | 2.09 | 2.42 | 2.97 | active
ABHD5 | 1 | 1.2 | 0.13 | 0.487 | inactive
SYNJ2BP | 1 | -0.25 | -0.62 | -0.295 | inactive
LOC440847 (retired record) | 1 | -1.25 | -1.59 | -1.27 | inactive
BPIFB2 | 1 | -0.0232 | 0.155 | -0.0354 | inactive
LIPJ | 1 | -2.86 | -0.0929 | -0.0482 | inactive
OR1I1 | 1 | -0.322 | 0.615 | 0.422 | inactive
NAV2 | 1 | -0.656 | -0.671 | -0.902 | inactive
IRS4 | 1 | 1.17 | 2.19 | 2.12 | active
ZBTB5 | 1 | -2.21 | -1.24 | 0.834 | inactive
CHADL | 1 | -1.21 | -1.85 | -1.32 | inactive
TMPRSS4 | 1 | -1.68 | -1.26 | -1.8 | inactive
OR8D2 | 1 | -0.664 | -0.545 | -0.697 | inactive
RAPGEF6 | 1 | 1.72 | 1.34 | 1.97 | inactive
C20orf203 | 1 | 0.797 | 0.71 | -0.121 | inactive

Targets listed so far whose gene name starts with R or r:
gene | reagent no. | robust z-score, replicate 1 | robust z-score, replicate 2 | robust z-score, replicate 3 | outcome
REPIN1 | 1 | 1.57 | 1.46 | 0.708 | inactive
RIMBP2 | 1 | -1.72 | -1.23 | -1.07 | inactive
RPS10P11 | 1 | 0.389 | 0.0668 | 0.201 | inactive
RAPGEF6 | 1 | 1.72 | 1.34 | 1.97 | inactive
